According to US20170189504A1, “NOVEL PEPTIDES AND COMBINATION OF PEPTIDES FOR USE IN IMMUNOTHERAPY AGAINST VARIOUS CANCERS” (immatics biotechnologies GmbH, priority 2015, published 2017):

Assays:
HLA-A*02 = test: Identification and relative LC-MS quantitation of HLA-A*02-presented tumor-associated peptides on tissue samples (presentation profiles, Tables 13A, 13B, 15, FIG. 1); design: species or system human; key to Presentation score NHL / Presentation score CLL / Presentation score BRCA / Presentation score AML / Presentation score GB / Presentation score NSCLC / Presentation score GBC_CCC / Presentation score UEC / Presentation score MEL / Presentation score OSCAR / Presentation score GC / Presentation score UBC / Presentation score OC / Presentation score RCC / Presentation score CRC / Presentation score PCA / Presentation score HCC / Presentation score PC / Presentation score SCLC: specifically presented on tumors (++++); very highly over-presented on tumors compared to a panel of normal tissues (+++); highly over-presented on tumors compared to a panel of normal tissues (++); over-presented on tumors compared to a panel of normal tissues (+); details: for Presentation score NHL: non-Hodgkin lymphoma (N = 18) vs panel of normal tissues (N = 262); for Presentation score NSCLC: non-small cell lung cancer (N = 90) vs panel of normal tissues (N = 262); for Presentation score OC: ovarian cancer (N = 20) vs panel of normal tissues (N = 262); for Peptide Presentation on cancer entities: HLA-A*02-binding tumor-associated peptides
source genes (mRNA) [1] = test: Gene and exon expression of source genes, TCGA tumor samples compared with normal tissue samples (Lonsdale, 2013) (Table 17); design: species or system human; details: for Target coverage: over-expression category of source gene, DLBC: Lymphoid neoplasm diffuse large B-cell lymphoma (N = 48); for Target coverage: over-expression category of source gene, STAD: Stomach adenocarcinoma (N = 415)
source genes (mRNA) [2] = test: Expression profiling of source genes by in-house RNASeq of tumor and normal tissues (Table 18, FIG. 2); design: species or system human; key: very highly over-expressed in tumors compared to a panel of normal tissues (+++); highly over-expressed in tumors compared to a panel of normal tissues (++); over-expressed in tumors compared to a panel of normal tissues (+); details: source gene of peptide; for Expression score NHL: non-Hodgkin lymphoma (N = 10) vs panel of normal tissues
[3] = Table 13A, cancer entities on which the peptide was found presented
[4] = Table 13B, presentation on additional cancer entities
[5] = cutoff more than 2-fold above highest 75% percentile of normal tissue samples

33: peptide found in STAT1 (gene looked up) (YIKTELISV; listed as Homo sapiens) [compound 33]
Presentation score OSCAR (HLA-A*02; HLA-A*02 peptides, esophageal cancer, including cancer of the gastric-esophageal junction (N = 17) vs panel of normal tissues (N = 262)): ++++ | Presentation score GC (HLA-A*02; HLA-A*02 peptides, gastric cancer (N = 29) vs panel of normal tissues (N = 262)): ++++ | Presentation score NHL (HLA-A*02; HLA-A*02 peptides): ++++ | Presentation score NSCLC (HLA-A*02; HLA-A*02 peptides): ++++ | Presentation score OC (HLA-A*02; HLA-A*02 peptides): ++++ | Peptide Presentation on cancer entities (HLA-A*02; [3]): GC, NSCLC, OSCAR, OC, NHL | Peptide Presentation on cancer entities (HLA-A*02; [4]): HCC | Target coverage: over-expression category of source gene, BLCA (source genes (mRNA) [1]; Bladder urothelial carcinoma (N = 408), cutoff more than 2-fold above highest 75% percentile of normal tissue samples): B (>= 20% of tumors above the cutoff, but <50%) | Target coverage: over-expression category of source gene, BRCA (source genes (mRNA) [1]; Breast cancer (N = 1104), cutoff more than 2-fold above highest 75% percentile of high and medium risk normal tissue samples): B (>= 20% of tumors above the cutoff, but <50%) | Target coverage: over-expression category of source gene, CHOL (source genes (mRNA) [1]; Cholangiocarcinoma (N = 36), cutoff more than 2-fold above highest 75% percentile of normal tissue samples): A (>=50% of tumors above the cutoff) | Target coverage: over-expression category of source gene, KIRC (source genes (mRNA) [1]; Clear cell kidney carcinoma (N = 534), cutoff more than 2-fold above highest 75% percentile of normal tissue samples): B (>= 20% of tumors above the cutoff, but <50%) | Target coverage: over-expression category of source gene, READ (source genes (mRNA) [1]; Colon and rectal adenocarcinoma (N = 167), cutoff more than 2-fold above highest 75% percentile of normal tissue samples): C (>=5% of tumors above the cutoff, but <20%) | Target coverage: over-expression category of source gene, COAD (source genes (mRNA) [1]; Colon and rectal adenocarcinoma (N = 462), cutoff more than 2-fold above highest 75% percentile of normal tissue samples): B (>= 20% of tumors above the cutoff, but <50%) | Target coverage: over-expression category of source gene, ESCA (source genes (mRNA) [1]; Esophageal cancer (N = 185), cutoff more than 2-fold above highest 75% percentile of normal tissue samples): A (>=50% of tumors above the cutoff) | Target coverage: over-expression category of source gene, GBM (source genes (mRNA) [1]; Glioblastoma multiforme (N = 169), cutoff more than 2-fold above highest 75% percentile of normal tissue samples): C (>=5% of tumors above the cutoff, but <20%) | Target coverage: over-expression category of source gene, LIHC (source genes (mRNA) [1]; Liver hepatocellular carcinoma (N = 374), cutoff more than 2-fold above highest 75% percentile of normal tissue samples): B (>= 20% of tumors above the cutoff, but <50%) | Target coverage: over-expression category of source gene, LGG (source genes (mRNA) [1]; Lower grade glioma (N = 534), cutoff more than 2-fold above highest 75% percentile of normal tissue samples): C (>=5% of tumors above the cutoff, but <20%) | Target coverage: over-expression category of source gene, LUAD (source genes (mRNA) [1]; Lung adenocarcinoma (N = 517), cutoff more than 2-fold above highest 75% percentile of normal tissue samples): A (>=50% of tumors above the cutoff) | Target coverage: over-expression category of source gene, LUSC (source genes (mRNA) [1]; Lung squamous cell carcinoma (N = 503), cutoff more than 2-fold above highest 75% percentile of normal tissue samples): B (>= 20% of tumors above the cutoff, but <50%) | Target coverage: over-expression category of source gene, DLBC (source genes (mRNA) [1]; [5]): A (>=50% of tumors above the cutoff) | Target coverage: over-expression category of source gene, OV (source genes (mRNA) [1]; Ovarian serous cystadenocarcinoma (N = 309), cutoff more than 2-fold above highest 75% percentile of normal tissue samples): B (>= 20% of tumors above the cutoff, but <50%) | Target coverage: over-expression category of source gene, PAAD (source genes (mRNA) [1]; Pancreatic ductal adenocarcinoma (N = 179), cutoff more than 2-fold above highest 75% percentile of normal tissue samples): C (>=5% of tumors above the cutoff, but <20%) | Target coverage: over-expression category of source gene, KIRP (source genes (mRNA) [1]; Papillary kidney carcinoma (N = 291), cutoff more than 2-fold above highest 75% percentile of normal tissue samples): B (>= 20% of tumors above the cutoff, but <50%) | Target coverage: over-expression category of source gene, PRAD (source genes (mRNA) [1]; Prostate adenocarcinoma (N = 498), cutoff more than 2-fold above highest 75% percentile of normal tissue samples): C (>=5% of tumors above the cutoff, but <20%) | Target coverage: over-expression category of source gene, SKCM (source genes (mRNA) [1]; Skin cutaneous melanoma (N = 473), cutoff more than 2-fold above highest 75% percentile of normal tissue samples): B (>= 20% of tumors above the cutoff, but <50%) | Target coverage: over-expression category of source gene, STAD (source genes (mRNA) [1]; [5]): B (>= 20% of tumors above the cutoff, but <50%) | Target coverage: over-expression category of source gene, UCEC (source genes (mRNA) [1]; Uterine corpus endometrial carcinoma (N = 546), cutoff more than 2-fold above highest 75% percentile of normal tissue samples): B (>= 20% of tumors above the cutoff, but <50%) | Expression score BRCA (source genes (mRNA) [2]; BRCA tumors vs panel of normal tissues): ++ | Expression score OSCAR (source genes (mRNA) [2]; esophageal cancer incl. gastric-esophageal junction (N = 11) vs panel of normal tissues): ++ | Expression score GC (source genes (mRNA) [2]; gastric cancer (N = 11) vs panel of normal tissues): + | Expression score NHL (source genes (mRNA) [2]): +++ | Expression score NSCLC (source genes (mRNA) [2]; non-small cell lung cancer (N = 11) vs panel of normal tissues): ++ | Expression score OC (source genes (mRNA) [2]; ovarian cancer (N = 12) vs panel of normal tissues): +++ | Expression score PC (source genes (mRNA) [2]; pancreatic cancer (N = 26) vs panel of normal tissues): + | Expression score RCC (source genes (mRNA) [2]; renal cell carcinoma (N = 10) vs panel of normal tissues): ++ | Expression score SCLC (source genes (mRNA) [2]; small cell lung cancer (N = 10) vs panel of normal tissues): + | Expression score UBC (source genes (mRNA) [2]; urinary bladder cancer (N = 10) vs panel of normal tissues): +

56: peptide found in CD96 (gene looked up) (FLHDEKEGIYI; listed as Homo sapiens) [compound 56]
Presentation score NHL (HLA-A*02; HLA-A*02 peptides): ++++ | Presentation score NSCLC (HLA-A*02; HLA-A*02 peptides): ++++ | Presentation score OC (HLA-A*02; HLA-A*02 peptides): ++++ | Peptide Presentation on cancer entities (HLA-A*02; [3]): NSCLC, OC, NHL | Peptide Presentation on cancer entities (HLA-A*02; [4]): AML | Target coverage: over-expression category of source gene, LAML (source genes (mRNA) [1]; Acute Myeloid Leukemia (N = 173), cutoff more than 2-fold above highest 75% percentile of normal tissue samples): A (>=50% of tumors above the cutoff) | Target coverage: over-expression category of source gene, DLBC (source genes (mRNA) [1]; [5]): C (>=5% of tumors above the cutoff, but <20%) | Target coverage: over-expression category of source gene, STAD (source genes (mRNA) [1]; [5]): C (>=5% of tumors above the cutoff, but <20%) | Expression score AML (source genes (mRNA) [2]; acute myeloid leukemia (N = 11) vs panel of normal tissues): + | Expression score NHL (source genes (mRNA) [2]): +

For some assays here: For expression read-outs the peptide stands for its source gene, whose mRNA was measured; the gene is not named for every peptide.
